In US20160263005A1, “TOPICAL COMPOSITIONS AND METHODS FOR SKIN LIGHTENING” (AVON PRODUCTS, INC., priority 2014, published 2016):
Where a name gives a salt, the structure may show the parent alone.

Test system: Human epidermal melanocytes from dark-pigmented skin
Assay: Melanin content in human epidermal melanocytes after 8 days of incubation (absorbance at 405 nm)
Format: cell-based
Protocol: The Compound of Formula (II) was examined for its ability to reduce pigmentation in vitro in human melanocytes. Human epidermal melanocytes from dark-pigmented skin were seeded in 6-well dishes and grown using commercially available Medium 254, a sterile, liquid medium prepared with 200 μM calcium chloride for the culture of human epidermal melanocytes, supplemented with 1% Penicillin/Streptomycin and 1% Human Melanocyte Growth Supplement. Corresponding controls were maintained without histamine, Diphenylhydramine HCl and Compound II. Four replicates were tested for each combination. After 8 days of incubation, melanin was collected and processed by washing the wells with 1× phosphate-buffered saline (PBS), followed by addition of 200 μL of 2M NaOH to three of the four replicates, which are then scraped, pooled and boiled at 80° C. for an hour. Melanin absorption was then measured at 405 nm using a spectrophotometer.
Results are summarized in Table 1 below as percent change of melanin absorbance relative to vehicle control. A larger (positive or negative) percent change indicates a larger increase or reduction in melanin.

Compound: CN(C)CCOC(c1ccccc1)c1ccccc1 [Diphenhydramine HCl]
- % Pigmentation (percent change of melanin absorbance relative to vehicle control) (5 μM, 8 days of incubation): −38.75%
- Effect on pigmentation, in words (at the concentrations of Table 1): reduces pigmentation
